Test results: the supplement of paper PMC11732987, “Enantioselective OTUD7B fragment discovery through chemoproteomics screening and high-throughput optimisation” (Communications Chemistry, 2025)
The list shows a part of the results. The data scatter; read single values as rough.

By UniProt entry, the sequences of proteins in these tests, tags left out. Where a name states a change or a piece, a line headed by the entry shows the natural chain unless it says otherwise. Residues count along the entry.
UniProt Q8IYA6: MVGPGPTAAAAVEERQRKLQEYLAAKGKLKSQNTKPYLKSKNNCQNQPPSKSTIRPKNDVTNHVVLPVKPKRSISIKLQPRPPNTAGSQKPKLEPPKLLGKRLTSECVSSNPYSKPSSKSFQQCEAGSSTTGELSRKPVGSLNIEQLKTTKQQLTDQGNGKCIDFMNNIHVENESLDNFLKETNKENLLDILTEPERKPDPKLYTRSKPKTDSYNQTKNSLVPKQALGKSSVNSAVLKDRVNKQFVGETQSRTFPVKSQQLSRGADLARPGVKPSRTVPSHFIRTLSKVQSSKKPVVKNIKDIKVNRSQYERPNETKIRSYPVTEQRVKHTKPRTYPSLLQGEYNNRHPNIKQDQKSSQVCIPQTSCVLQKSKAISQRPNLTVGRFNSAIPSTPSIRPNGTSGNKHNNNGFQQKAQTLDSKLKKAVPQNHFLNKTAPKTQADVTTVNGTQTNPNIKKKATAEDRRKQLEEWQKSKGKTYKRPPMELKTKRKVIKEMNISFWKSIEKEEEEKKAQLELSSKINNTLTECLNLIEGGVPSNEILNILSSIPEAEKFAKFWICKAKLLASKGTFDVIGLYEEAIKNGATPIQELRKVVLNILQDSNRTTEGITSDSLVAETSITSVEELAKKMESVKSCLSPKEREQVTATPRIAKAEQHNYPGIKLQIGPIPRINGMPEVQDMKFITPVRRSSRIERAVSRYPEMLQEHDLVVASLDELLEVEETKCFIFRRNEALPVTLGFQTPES
UniProt P26374, 468-490: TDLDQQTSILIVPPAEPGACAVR
UniProt Q14677: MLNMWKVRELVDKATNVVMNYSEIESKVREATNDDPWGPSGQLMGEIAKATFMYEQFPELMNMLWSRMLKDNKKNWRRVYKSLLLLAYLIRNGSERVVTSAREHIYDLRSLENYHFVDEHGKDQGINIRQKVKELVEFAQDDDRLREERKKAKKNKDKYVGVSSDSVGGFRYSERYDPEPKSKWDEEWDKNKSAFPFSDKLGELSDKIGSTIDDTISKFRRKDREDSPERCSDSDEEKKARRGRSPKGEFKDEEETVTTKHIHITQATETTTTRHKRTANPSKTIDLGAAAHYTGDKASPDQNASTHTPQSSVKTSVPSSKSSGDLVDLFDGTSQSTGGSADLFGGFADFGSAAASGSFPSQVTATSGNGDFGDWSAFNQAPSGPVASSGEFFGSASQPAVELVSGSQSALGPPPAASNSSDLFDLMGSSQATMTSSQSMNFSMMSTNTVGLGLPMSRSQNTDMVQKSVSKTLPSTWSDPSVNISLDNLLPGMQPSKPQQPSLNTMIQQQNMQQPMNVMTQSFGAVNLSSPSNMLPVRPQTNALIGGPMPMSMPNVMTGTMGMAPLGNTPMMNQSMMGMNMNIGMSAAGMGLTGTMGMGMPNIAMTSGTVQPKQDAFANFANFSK
UniProt Q14008, 1103-1125: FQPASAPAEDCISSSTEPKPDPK
UniProt Q96RY5, 579-605: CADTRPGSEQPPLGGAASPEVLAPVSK
UniProt Q8IY22: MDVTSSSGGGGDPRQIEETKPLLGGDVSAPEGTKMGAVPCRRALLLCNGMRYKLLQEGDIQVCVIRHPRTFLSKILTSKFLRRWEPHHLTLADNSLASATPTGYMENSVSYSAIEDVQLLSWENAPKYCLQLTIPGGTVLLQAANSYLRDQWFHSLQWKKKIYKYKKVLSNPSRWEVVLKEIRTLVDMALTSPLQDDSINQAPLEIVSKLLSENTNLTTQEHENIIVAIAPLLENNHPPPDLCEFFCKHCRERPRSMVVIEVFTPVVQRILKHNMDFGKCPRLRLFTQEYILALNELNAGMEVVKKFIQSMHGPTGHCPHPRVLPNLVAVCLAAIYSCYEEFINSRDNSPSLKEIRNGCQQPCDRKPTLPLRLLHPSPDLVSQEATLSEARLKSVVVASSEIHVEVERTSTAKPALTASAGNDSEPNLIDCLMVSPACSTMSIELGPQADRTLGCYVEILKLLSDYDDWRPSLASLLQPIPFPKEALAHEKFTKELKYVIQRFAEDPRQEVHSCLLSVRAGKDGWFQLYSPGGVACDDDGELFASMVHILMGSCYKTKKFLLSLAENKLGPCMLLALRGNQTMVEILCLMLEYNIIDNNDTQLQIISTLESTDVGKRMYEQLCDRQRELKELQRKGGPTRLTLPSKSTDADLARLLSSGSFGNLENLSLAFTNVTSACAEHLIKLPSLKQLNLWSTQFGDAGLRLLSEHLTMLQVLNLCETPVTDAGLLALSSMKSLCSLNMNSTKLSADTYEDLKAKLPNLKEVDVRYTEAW
UniProt Q07065, 79-102: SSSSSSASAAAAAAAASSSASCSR
UniProt Q5RI15: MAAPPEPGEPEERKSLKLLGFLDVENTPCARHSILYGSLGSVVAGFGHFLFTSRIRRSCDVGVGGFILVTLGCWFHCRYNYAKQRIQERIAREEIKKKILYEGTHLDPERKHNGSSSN
UniProt P53675: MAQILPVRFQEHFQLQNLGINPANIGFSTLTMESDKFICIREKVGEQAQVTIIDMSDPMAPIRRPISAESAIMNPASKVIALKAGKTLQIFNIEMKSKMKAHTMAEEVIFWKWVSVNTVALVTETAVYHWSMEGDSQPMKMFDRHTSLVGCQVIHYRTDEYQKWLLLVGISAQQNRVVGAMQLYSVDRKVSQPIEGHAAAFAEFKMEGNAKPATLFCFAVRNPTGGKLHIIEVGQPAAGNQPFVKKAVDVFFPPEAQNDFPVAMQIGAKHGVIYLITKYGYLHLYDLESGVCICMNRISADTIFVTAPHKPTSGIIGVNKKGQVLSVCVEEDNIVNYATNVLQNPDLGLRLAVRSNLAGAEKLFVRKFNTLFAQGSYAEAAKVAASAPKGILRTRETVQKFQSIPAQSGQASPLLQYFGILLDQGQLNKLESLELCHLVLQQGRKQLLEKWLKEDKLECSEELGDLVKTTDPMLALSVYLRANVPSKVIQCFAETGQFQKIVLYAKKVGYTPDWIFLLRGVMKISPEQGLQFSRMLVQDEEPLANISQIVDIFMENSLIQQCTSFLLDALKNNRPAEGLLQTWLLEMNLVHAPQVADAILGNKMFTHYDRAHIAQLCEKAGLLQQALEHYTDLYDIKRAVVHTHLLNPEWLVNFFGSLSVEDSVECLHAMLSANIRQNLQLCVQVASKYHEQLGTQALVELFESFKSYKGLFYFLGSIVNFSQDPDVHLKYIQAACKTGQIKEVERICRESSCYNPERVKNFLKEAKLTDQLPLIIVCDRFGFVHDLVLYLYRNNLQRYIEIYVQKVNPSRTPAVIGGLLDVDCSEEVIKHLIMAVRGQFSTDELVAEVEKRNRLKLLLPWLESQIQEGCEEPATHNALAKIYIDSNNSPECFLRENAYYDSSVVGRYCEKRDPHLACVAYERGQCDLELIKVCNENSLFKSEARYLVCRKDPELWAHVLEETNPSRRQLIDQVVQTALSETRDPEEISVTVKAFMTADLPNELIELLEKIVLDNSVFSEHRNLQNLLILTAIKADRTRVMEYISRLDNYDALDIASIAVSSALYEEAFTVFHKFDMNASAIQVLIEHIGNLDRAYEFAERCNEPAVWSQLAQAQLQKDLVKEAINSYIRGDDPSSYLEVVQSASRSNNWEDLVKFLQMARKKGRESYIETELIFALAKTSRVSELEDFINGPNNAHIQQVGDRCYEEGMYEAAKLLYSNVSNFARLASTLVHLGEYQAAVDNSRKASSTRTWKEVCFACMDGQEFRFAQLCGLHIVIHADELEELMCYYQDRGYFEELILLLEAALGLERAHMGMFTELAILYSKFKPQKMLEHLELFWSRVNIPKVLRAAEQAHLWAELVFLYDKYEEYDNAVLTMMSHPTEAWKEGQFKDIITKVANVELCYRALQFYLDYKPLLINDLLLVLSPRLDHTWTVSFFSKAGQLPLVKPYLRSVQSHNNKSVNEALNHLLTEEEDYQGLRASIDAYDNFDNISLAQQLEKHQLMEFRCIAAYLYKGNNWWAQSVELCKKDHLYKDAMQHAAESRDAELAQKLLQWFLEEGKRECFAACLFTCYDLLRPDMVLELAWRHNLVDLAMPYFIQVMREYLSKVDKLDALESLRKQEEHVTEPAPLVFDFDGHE
UniProt O95639, whole entry, looked up: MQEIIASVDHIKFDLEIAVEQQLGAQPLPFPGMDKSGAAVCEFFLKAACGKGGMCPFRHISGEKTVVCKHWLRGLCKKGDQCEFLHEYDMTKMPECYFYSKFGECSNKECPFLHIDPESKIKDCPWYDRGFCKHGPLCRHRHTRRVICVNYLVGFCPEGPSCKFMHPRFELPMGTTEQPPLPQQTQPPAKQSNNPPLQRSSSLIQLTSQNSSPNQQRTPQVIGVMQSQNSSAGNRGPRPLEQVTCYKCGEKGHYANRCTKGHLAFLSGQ
UniProt Q99439: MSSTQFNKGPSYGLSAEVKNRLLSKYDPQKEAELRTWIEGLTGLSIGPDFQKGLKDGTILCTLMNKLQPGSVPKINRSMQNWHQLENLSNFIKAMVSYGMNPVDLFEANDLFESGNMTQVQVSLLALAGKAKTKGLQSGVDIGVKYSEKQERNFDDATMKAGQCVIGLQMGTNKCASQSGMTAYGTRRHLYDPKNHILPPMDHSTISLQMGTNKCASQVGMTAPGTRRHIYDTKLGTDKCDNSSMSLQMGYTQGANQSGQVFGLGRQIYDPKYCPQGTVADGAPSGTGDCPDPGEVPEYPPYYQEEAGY
UniProt Q9H9E3: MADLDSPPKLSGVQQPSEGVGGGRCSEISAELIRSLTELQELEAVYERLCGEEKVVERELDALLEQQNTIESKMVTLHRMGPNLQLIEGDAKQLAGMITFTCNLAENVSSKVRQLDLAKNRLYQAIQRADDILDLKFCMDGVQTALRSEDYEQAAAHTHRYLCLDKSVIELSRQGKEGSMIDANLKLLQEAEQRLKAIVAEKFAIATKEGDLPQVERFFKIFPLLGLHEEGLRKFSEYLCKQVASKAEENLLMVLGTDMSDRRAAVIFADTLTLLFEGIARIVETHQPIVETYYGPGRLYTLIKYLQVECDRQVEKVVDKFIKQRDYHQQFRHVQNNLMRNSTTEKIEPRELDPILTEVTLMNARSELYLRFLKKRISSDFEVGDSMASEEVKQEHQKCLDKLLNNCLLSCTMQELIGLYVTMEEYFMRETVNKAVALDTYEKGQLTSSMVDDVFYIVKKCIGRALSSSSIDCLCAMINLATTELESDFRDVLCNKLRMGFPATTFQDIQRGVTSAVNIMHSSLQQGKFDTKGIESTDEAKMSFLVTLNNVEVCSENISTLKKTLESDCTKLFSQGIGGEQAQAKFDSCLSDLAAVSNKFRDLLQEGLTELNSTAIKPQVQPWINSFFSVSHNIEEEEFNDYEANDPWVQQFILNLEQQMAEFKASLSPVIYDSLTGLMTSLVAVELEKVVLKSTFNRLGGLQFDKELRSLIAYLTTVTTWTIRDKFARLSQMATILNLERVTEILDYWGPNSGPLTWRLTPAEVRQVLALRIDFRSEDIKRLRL
UniProt Q99807, 132-154: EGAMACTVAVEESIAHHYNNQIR
UniProt Q96MW5: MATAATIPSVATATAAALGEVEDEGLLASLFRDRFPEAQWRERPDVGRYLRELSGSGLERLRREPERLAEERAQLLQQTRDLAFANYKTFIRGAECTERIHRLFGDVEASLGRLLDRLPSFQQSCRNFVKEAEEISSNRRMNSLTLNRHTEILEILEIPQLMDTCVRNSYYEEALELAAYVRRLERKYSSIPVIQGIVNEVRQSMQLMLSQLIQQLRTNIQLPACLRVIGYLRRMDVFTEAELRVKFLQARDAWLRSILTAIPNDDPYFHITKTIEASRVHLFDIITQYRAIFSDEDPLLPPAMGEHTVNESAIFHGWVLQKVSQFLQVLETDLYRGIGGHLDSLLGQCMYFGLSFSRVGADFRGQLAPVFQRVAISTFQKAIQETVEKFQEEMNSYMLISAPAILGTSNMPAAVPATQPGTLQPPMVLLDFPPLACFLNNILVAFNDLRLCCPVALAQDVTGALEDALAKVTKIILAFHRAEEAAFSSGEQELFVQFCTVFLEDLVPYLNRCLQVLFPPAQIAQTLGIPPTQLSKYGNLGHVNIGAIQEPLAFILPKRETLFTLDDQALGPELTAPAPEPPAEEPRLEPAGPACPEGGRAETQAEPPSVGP
UniProt P0C7P0: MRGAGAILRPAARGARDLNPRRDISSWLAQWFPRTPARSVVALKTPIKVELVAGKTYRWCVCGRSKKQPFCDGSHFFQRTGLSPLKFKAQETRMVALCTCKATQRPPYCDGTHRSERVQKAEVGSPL
UniProt Q9H3G5: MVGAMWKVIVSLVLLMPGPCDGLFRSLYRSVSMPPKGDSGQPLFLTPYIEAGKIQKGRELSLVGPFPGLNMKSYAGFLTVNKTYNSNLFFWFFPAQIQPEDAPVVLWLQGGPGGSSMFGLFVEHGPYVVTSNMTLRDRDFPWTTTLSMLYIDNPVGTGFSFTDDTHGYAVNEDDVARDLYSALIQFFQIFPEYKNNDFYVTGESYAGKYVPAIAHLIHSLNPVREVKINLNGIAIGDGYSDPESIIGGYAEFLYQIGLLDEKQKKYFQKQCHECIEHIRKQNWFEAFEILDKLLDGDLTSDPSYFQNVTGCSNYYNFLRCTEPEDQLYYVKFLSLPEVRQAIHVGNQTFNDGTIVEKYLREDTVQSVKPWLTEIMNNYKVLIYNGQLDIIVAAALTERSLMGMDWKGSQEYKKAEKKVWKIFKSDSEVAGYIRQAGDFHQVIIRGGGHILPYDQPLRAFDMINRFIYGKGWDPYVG

Legend:
[1] = compound: ClCC(=O)N[C@@H]1CCCc2ccccc12; test: log2 mean competition ratio of IA-DTB cysteine labelling (DMSO/compound) (log2 ratio); higher = stronger cysteine engagement by compound; conditions: treatment time: 4 h, cell line lysate: HEK293T
Description: (§1)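 IA-DTB competitive cysteine chemoproteomics in HEK293T RIPA lysate. Lysates were treated with compound 29 or 30 at 50 or 200 µM for 4 h, then IA-DTB (500 µM, 1 h), trypsin-digested, NeutrAvidin-enriched and analysed by diaPASEF. Competition ratio = intensity DMSO / intensity compound (n=4 treated, n=64 DMSO); binding: mean log2 CR ≥ 1 and p ≤ 0.05 plus QC filters. Target is the cysteine site.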

[2] = compound: ClCC(=O)N[C@H]1CCCc2ccccc12; test: as above; conditions: treatment time: 4 h, cell line lysate: HEK293T
Description: as §1

Target | log2 mean competition ratio ([1]; 50 µM) | log2 mean competition ratio ([1]; 200 µM) | log2 mean competition ratio ([2]; 50 µM) | log2 mean competition ratio ([2]; 200 µM)
CKAP2L C124 (UniProt Q8IYA6) | 0.0432 | -0.152 |  | 
CPNE3 C249 (UniProt O75131) | -0.069 | -0.0328 |  | 
CNST C439 (UniProt Q6PJW8) | -0.0561 | 0.0692 |  | 
CNOT6 C451 (UniProt Q9ULM6) | 0.13 | 0.0344 |  | 
CPSF3 C223 (UniProt Q9UKF6) | 0.0967 | 0.0401 |  | 
COIL C239 (UniProt P38432) | 0.0725 | -0.00717 |  | 
CHORDC1 C86 (UniProt Q9UHD1) | -0.188 | -0.188 |  | 
CHML C487 (UniProt P26374) | -0.349 | -0.0156 |  | 
CLINT1 C231 (UniProt Q14677) | -0.176 | 0.678 |  | 
CKAP5 C1317 (UniProt Q14008) | 0.113 | 0.0451 |  | 
CRAMP1 C579 (UniProt Q96RY5) | 0.321 | -0.121 |  | 
CNN3 C59 (UniProt Q15417) | -0.0538 | -0.442 |  | 
COMTD1 C231 (UniProt Q86VU5) | 0.0881 | -0.0533 |  | 
CIC C1420 | -0.0779 | 0.0272 |  | 
CIAO1 C212 (UniProt O76071) | -0.215 | 0.0338 |  | 
COL25A1 C27 (UniProt Q9BXS0) | -0.144 | 0.318 |  | 
CMIP C455 (UniProt Q8IY22) | -0.0422 | 0.0712 |  | 
CLUAP1 C292 | -0.219 | -0.474 |  | 
CHMP5 C20 (UniProt Q9NZZ3) | 0.171 | 0.297 |  | 
CKAP4 C100 (UniProt Q07065) | -0.184 | 0.435 |  | 
CLTC C753 (UniProt Q00610) | -0.13 | 0.0195 |  | 
COX20 C29 (UniProt Q5RI15) | 0.0941 | 0.476 |  | 
CLTCL1 C778 (UniProt P53675) | -0.00557 | -0.693 |  | 
CHPF2 C42 (UniProt Q9P2E5) | -0.191 | 0.336 |  | 

Target | log2 mean competition ratio ([1]; 50 µM) | log2 mean competition ratio ([1]; 200 µM) | log2 mean competition ratio ([2]; 50 µM) | log2 mean competition ratio ([2]; 200 µM)
CKAP5 C1113 (UniProt Q14008) | -0.0994 | 0.017 |  | 
CLUH C184 | 0.000718 | -0.0964 |  | 
CKAP5 C1500 (UniProt Q14008) | 0.0415 | -0.198 |  | 
CPSF4 C124 (UniProt O95639) | 0.199 | 0.518 |  | 
CHTF18 C542 (UniProt Q8WVB6) | -0.0573 | -0.075 |  | 
COBL C993 (UniProt O75128) | 0.0174 | 0.00319 |  | 
COPS3 C25 (UniProt Q9UNS2) | 0.243 | 0.599 |  | 
CNN2 C175 (UniProt Q99439) | 0.559 | 0.0717 |  | 
COQ8A C641 (UniProt Q8NI60) | 0.239 | 0.185 |  | 
CNN2 C215 (UniProt Q99439) | 0.199 | 0.0957 |  | 
CIAO1 C52 (UniProt O76071) | -0.153 | -0.146 |  | 
CNOT7 C67 | 0.00655 | -0.182 |  | 
CLTCL1 C892 (UniProt P53675) | -0.0152 | -0.0573 |  | 
COMMD5 C64 (UniProt Q9GZQ3) | 0.0981 | -0.105 |  | 
COPS3 C383 (UniProt Q9UNS2) | -0.13 | 0.116 |  | 
CLUH C899 | 0.0362 | -0.022 |  | 
CMAS C364 (UniProt Q8NFW8) | 0.177 | 0.0332 | -0.104 | 0.0716
CHST14 C159 (UniProt Q8NCH0) | 0.603 | 1.26 |  | 
COA5 C14 (UniProt Q86WW8) | 0.204 | 0.0606 |  | 
COG4 C310 (UniProt Q9H9E3) | -0.0109 | -0.0265 | 0.0173 | -0.0501
COQ7 C137 (UniProt Q99807) | 0.0604 | -0.15 |  | 
COPG2 C723 (UniProt Q9UBF2) | -0.574 | -0.00198 |  | 
CNTNAP1 C1250 | 0.322 | -0.302 |  | -0.316
CLTC C1528 (UniProt Q00610) | -0.32 | 0.11 |  | 0.239

An excerpt of these results, in CSV form:
Target,log2 mean competition ratio ([1]; 50 µM),log2 mean competition ratio ([1]; 200 µM),log2 mean competition ratio ([2]; 50 µM),log2 mean competition ratio ([2]; 200 µM)
CLUH C899,0.0362,-0.022,,
CMAS C364 (UniProt Q8NFW8),0.177,0.0332,-0.104,0.0716
CHST14 C159 (UniProt Q8NCH0),0.603,1.26,,

(further entries)

Target | log2 mean competition ratio ([1]; 50 µM) | log2 mean competition ratio ([1]; 200 µM) | log2 mean competition ratio ([2]; 50 µM) | log2 mean competition ratio ([2]; 200 µM)
COG4 C589 (UniProt Q9H9E3) | -0.00394 | -0.0527 | -0.374 | -0.16
CHD4 C396 | -0.223 | -0.0764 |  | 
COG4 C240 (UniProt Q9H9E3) | 0.256 | -0.0883 |  | 
CHKB C17 (UniProt Q9Y259) | -0.271 | 0.232 |  | 
COPG2 C420 (UniProt Q9UBF2) | -0.0528 | -0.0351 | -0.329 | 0.00418
CHD4 C452 | -0.31 | 0.157 |  | 
CLMN C508 | -0.516 | -0.615 |  | -0.362
COG8 C96 (UniProt Q96MW5) | -0.0136 | 0.672 |  | 
CPD C195 (UniProt O75976) | -0.225 | -0.0832 |  | 
CNP C111 (UniProt P09543) | -0.126 | 0.0906 |  | 
CISD3 C109 (UniProt P0C7P0) | 0.365 | 0.0397 |  | 
CIP2A C472 (UniProt Q8TCG1) | 0.132 | 0.0657 |  | 
CPSF4 C110 (UniProt O95639) | -0.0944 | -0.312 |  | 
CLTCL1 C753 (UniProt P53675) | 0.558 | -0.0393 | -0.114 | 0.495
CLTCL1 C824 (UniProt P53675) | -0.22 | 0.0787 |  | 
COG1 C577 (UniProt Q8WTW3) | -0.0424 | -0.227 | 0.0707 | -0.237
COG1 C584 (UniProt Q8WTW3) | -0.234 | -0.286 | 0.272 | -0.073
CPLANE1 C1074 | -0.185 | 0.119 |  | 
COMMD6 C35 (UniProt Q7Z4G1) | -0.0391 | 0.21 | -0.0866 | 0.286
COA7 C172 (UniProt Q96BR5) | -0.138 | 0.127 |  | 0.136
CPVL C320 (UniProt Q9H3G5) | 0.0747 | -0.113 |  | -0.0929
CHORDC1 C211 (UniProt Q9UHD1) | -0.231 | 0.108 | -0.417 | 0.107
COX6B1 C54 (UniProt P14854) | 0.113 | 0.155 |  | 
CHD9 C1705 (UniProt Q3L8U1) | 0.0085 | -0.0653 |  | 
